The list shows a part of the results.

By UniProt entry, the sequences of proteins in these tests, tags left out.
UniProt Q0JBA9, entry or part of it: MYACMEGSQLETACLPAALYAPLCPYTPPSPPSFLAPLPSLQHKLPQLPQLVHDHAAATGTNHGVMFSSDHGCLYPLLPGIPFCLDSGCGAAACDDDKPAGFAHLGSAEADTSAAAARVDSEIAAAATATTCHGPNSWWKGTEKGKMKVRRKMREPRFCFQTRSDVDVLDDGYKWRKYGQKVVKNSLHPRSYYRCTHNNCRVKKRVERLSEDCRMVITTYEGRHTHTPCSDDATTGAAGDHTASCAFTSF

The assay has as its target OsWRKY34 (Oryza sativa, UniProt Q0JBA9 1-250). The assay can be described thus: protein-binding microarray (RPBM); PBS, 2% BSA, 51.3 ng/ul salmon testes DNA, 50 uM zinc acetate, 200 nM TF, 25 C, 1 h; high values mean tight binding. The note with it: protein: recombinant; tags: N-terminal polyhistidine and DsRed monomer fusion (pET32a); label: CyDye5-dUTP incorporated in the synthesized complementary strand; 3' TTTTT single-stranded linker to array surface; dsDNA, one strand shown. In outline:
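Polyhistidine-tagged DsRed fusions of transcription factors, joined at the N-terminus, were expressed in E. coli BL21-CodonPlus and isolated on Ni–NTA. They were incubated at 200 nM for 1 h at 25 °C on a custom Agilent array, double-stranded and BSA-blocked, in PBS with 2% BSA, salmon testes DNA and 50 µM zinc acetate. The binding signal is per-feature fluorescence intensity (arbitrary units) read on an Axon 4000B scanner after washing.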
For “AGATTTTGTTGACTGTTGTTGGCTCTTGCCTTTTGTGTGACGGAGTCACCTAGTGCAG”, the binding signal is 9740 fluorescence intensity (a.u.).

Consider “TTAATTATTATAATTGTTTTACTACTTTCAACTACTGTTTCGGAGTCACCTAGTGCAG”, for which the binding signal was 8620 fluorescence intensity (a.u.).

For the sequence “CACAAACATGCAACTTAAAATTCACTTTACATGTCACACCCGGAGTCACCTAGTGCAG”, the binding signal was 8130 fluorescence intensity (a.u.).

Regarding “CTCTCTCCGGCACACAAAACGATGTTCGTATTAATACGTACGGAGTCACCTAGTGCAG”, the binding signal was 8560 fluorescence intensity (a.u.).

On to “TTGGTCGGCTTCCGTTCCTTGGGTCGTCGTCATCGCCGTCCGGAGTCACCTAGTGCAG”, for which the binding signal is 8250 fluorescence intensity (a.u.).

In the case of “AGAGGGGAGTGGGGTGGTAATTTAAACTTTTTCTAAAAATCGGAGTCACCTAGTGCAG”, the binding signal was 13800 fluorescence intensity (a.u.).

“GCGCGCGCGTGGTCCATACCCACCTTTTTTGTCGCGTCGCCGGAGTCACCTAGTGCAG”: the binding signal was 10500 fluorescence intensity (a.u.).

With “AAATTGTTTCCCCGGATTTCTCATGCTAACGTCTAACCTCCGGAGTCACCTAGTGCAG”, the binding signal is 8640 fluorescence intensity (a.u.).

Turning to “TTTTCTTTTTGCAATCATTACAACTAATTCTTCTTCTTCTCGGAGTCACCTAGTGCAG”, the binding signal was 8770 fluorescence intensity (a.u.).

Turning to “GCAGAAATTGCATTGGTTCTAATTGATATCCCAGAACACACGGAGTCACCTAGTGCAG”, the binding signal was 9880 fluorescence intensity (a.u.).

With “TCCTATATGGTGGACACCAGCTCTACAATGGTTCTCCTACCGGAGTCACCTAGTGCAG”, the binding signal was 9720 fluorescence intensity (a.u.).

On to “ACTATATATATACACTACGGTTGACAAAGACATCCCAACACGGAGTCACCTAGTGCAG”, for which the binding signal was 8200 fluorescence intensity (a.u.).

Take “CTGGGTTATCGAAATCTCACATCCTTCATTTTTTTATGTTCGGAGTCACCTAGTGCAG”: the binding signal is 10700 fluorescence intensity (a.u.).

Turning to “AGTATTTAGGTAGCTTGTTTTTTCTTTTTTTTTAAGAAACCGGAGTCACCTAGTGCAG”, the binding signal was 11300 fluorescence intensity (a.u.).

As for “GACACATGTGATTTTTTTGACAAATGTTTGACTATTTGTTCGGAGTCACCTAGTGCAG”, the binding signal is 8120 fluorescence intensity (a.u.).

On to “TAACTGTGTGTGGCCAACCTACCTAGAATCTTTCTTGATCCGGAGTCACCTAGTGCAG”, for which the binding signal is 10200 fluorescence intensity (a.u.).

As for “AATACATCATTTTTTTCATTTTGTTGAGACGCTGAGTTGCCGGAGTCACCTAGTGCAG”, the binding signal is 8900 fluorescence intensity (a.u.).

For “ACCCCACCACCTCGACATTATATATCATCGGAGTTTTCTACGGAGTCACCTAGTGCAG”, the binding signal is 11200 fluorescence intensity (a.u.).

As for “ACTAAGCTGCGCCTGTCTACTTGTCAAGCTCTACAAAACCCGGAGTCACCTAGTGCAG”, the binding signal was 10100 fluorescence intensity (a.u.).

For the sequence “ATTATCCGCGGGCCTTCTGTTTGTTGCTGGGCCCTGGGCCCGGAGTCACCTAGTGCAG”, the binding signal is 9180 fluorescence intensity (a.u.).

Regarding “CTCGCCTCGTAGCCGCCGCCGCCGCCTTGTCGCCCACTGCCGGAGTCACCTAGTGCAG”, the binding signal was 9590 fluorescence intensity (a.u.).

Consider “CTCAACAGCAACAGCAACAACACACTTACCAAATTTGTGTCGGAGTCACCTAGTGCAG”, for which the binding signal is 8240 fluorescence intensity (a.u.).

Regarding “ATCCGAAACAATTCGCTTCTCATCCGCACCCGTACATTATCGGAGTCACCTAGTGCAG”, the binding signal was 10600 fluorescence intensity (a.u.).

Turning to “TTGAGTTTTTGTTTGCACTCTTTGATCCCTCGTCTTATTCCGGAGTCACCTAGTGCAG”, the binding signal was 8390 fluorescence intensity (a.u.).

In the case of “ATATATATATATATATATATATATATATATATTGGCAATTCGGAGTCACCTAGTGCAG”, the binding signal was 10300 fluorescence intensity (a.u.).

With “AATAATAACATAGCTAAAGCATGTATACCTTGCAGTACTTCGGAGTCACCTAGTGCAG”, the binding signal is 8520 fluorescence intensity (a.u.).

Turning to “CTCCTCTTACAATATTGCTTATTTCTAATTTCGAATTTCACGGAGTCACCTAGTGCAG”, the binding signal was 8980 fluorescence intensity (a.u.).

Consider “ATATAGATATACTTTGATCTTACTCCACCACTATTAAAATCGGAGTCACCTAGTGCAG”, for which the binding signal is 8830 fluorescence intensity (a.u.).

Regarding “GATTAATTACCTACCTGCTTACGTCCTCCGTGCTTAAGCACGGAGTCACCTAGTGCAG”, the binding signal is 8210 fluorescence intensity (a.u.).

In the case of “TTGTCTATGACCCGATCTTCTACAAGCCGTAGTTCCGCCTCGGAGTCACCTAGTGCAG”, the binding signal is 8540 fluorescence intensity (a.u.).

Turning to “GAGCACACTACTACTCCTACTCCGGTCCAGCCACTGCACACGGAGTCACCTAGTGCAG”, the binding signal was 8320 fluorescence intensity (a.u.).

“CTGTGGCCGTTTCTTGCGGCGTGGTGAGGTGAGGGGAGGGCGGAGTCACCTAGTGCAG”: the binding signal was 10600 fluorescence intensity (a.u.).

As for “GAGGCGAAGGGGAGGAGGAGGTCAGGTGGCGGCGGCGGCGCGGAGTCACCTAGTGCAG”, the binding signal was 8220 fluorescence intensity (a.u.).

For the sequence “CGTCTCTTTTTTTCGCGACTTTTTTTCTTTTATTTTTCTCCGGAGTCACCTAGTGCAG”, the binding signal was 15600 fluorescence intensity (a.u.).

For “CGTGAATGCGCCACACTGCCTCGTTTTTTTAGTGCAAGGACGGAGTCACCTAGTGCAG”, the binding signal was 11700 fluorescence intensity (a.u.).

As for “TGAATTACTACCGTGTACTCCGATCTCTCTCTGGATATACCGGAGTCACCTAGTGCAG”, the binding signal was 8180 fluorescence intensity (a.u.).

As to “CTTTTGTATTTATCAAGATTGTTTGATTTTGTGCTGTTAACGGAGTCACCTAGTGCAG”, the binding signal was 10600 fluorescence intensity (a.u.).

As to “ACAATTCCTATGTTTTTTCTGTGTTTTACAATCCTCTGTTCGGAGTCACCTAGTGCAG”, the binding signal was 9240 fluorescence intensity (a.u.).

With “GCAGCCTTAATTAGCATTTCTAGAAAATTCTACTTCTTCCCGGAGTCACCTAGTGCAG”, the binding signal was 9150 fluorescence intensity (a.u.).

Regarding “CCTCCACCTCGCCGCCGCCGCTGCTCGCGACCGATCTTCACGGAGTCACCTAGTGCAG”, the binding signal is 10700 fluorescence intensity (a.u.).

With “AGTGTTGTGGGGTTTATTTATTGTTGAGGAGATGGTCTTTCGGAGTCACCTAGTGCAG”, the binding signal is 15500 fluorescence intensity (a.u.).

Consider “CATGAAATTCTTATTCTTACATTCCAATTGGCCTTAACCTCGGAGTCACCTAGTGCAG”, for which the binding signal is 8500 fluorescence intensity (a.u.).

With “CCGCTACGCTCGCCGCGCCGCCGCGGGTGGGGAGATTTGACGGAGTCACCTAGTGCAG”, the binding signal was 8650 fluorescence intensity (a.u.).

For “TCCTCTAGTACCCACTGTGTCAATCTTCTAGTTACACTAGCGGAGTCACCTAGTGCAG”, the binding signal is 10300 fluorescence intensity (a.u.).

Take “CCTCCACCTCCTCCCCGGGTCGGCCATGCTCTGCCTCAGCCGGAGTCACCTAGTGCAG”: the binding signal is 8620 fluorescence intensity (a.u.).

“ACCATTTTGTGATTTGTTGCTGCAAGCCTCATTATCGTTCCGGAGTCACCTAGTGCAG”: the binding signal is 9280 fluorescence intensity (a.u.).

“ACCTACTCTGCCGTCACCGACATCCTCTTCTATGGCTCGTCGGAGTCACCTAGTGCAG”: the binding signal is 11000 fluorescence intensity (a.u.).

For “TATTCCATCACCTCATTCTATGCTCGCTAAAACATATACCCGGAGTCACCTAGTGCAG”, the binding signal was 8590 fluorescence intensity (a.u.).

With “TCACTTTGGGTCTCTTTATTTTTTATCCAGTCCGATTTTCCGGAGTCACCTAGTGCAG”, the binding signal was 9230 fluorescence intensity (a.u.).

With “CGGTAGGCCAATAGCTGTCGTCTTGCCAGATCTTTATGTCCGGAGTCACCTAGTGCAG”, the binding signal is 8320 fluorescence intensity (a.u.).

As for “TGGGGATGGGGAATTGACCTGGGTAGGGGTGGTAATTGGGCGGAGTCACCTAGTGCAG”, the binding signal was 16000 fluorescence intensity (a.u.).

Turning to “TAGTGACGCCAACCCTCGCCTCAATCGGCCCCGCTGCCAGCGGAGTCACCTAGTGCAG”, the binding signal was 9360 fluorescence intensity (a.u.).

“GAAGAGCCGGCTCGTTCCTCTCCTTCCCGTTCACATTTCACGGAGTCACCTAGTGCAG”: the binding signal was 8260 fluorescence intensity (a.u.).

As for “TCTTCGTCGCGTCATGCGCGCCCGGCCACGTTTTCCTCACCGGAGTCACCTAGTGCAG”, the binding signal was 8180 fluorescence intensity (a.u.).
